Test results: article PMC3203871
Results are given in words; binding and its absence hold for the method and conditions named. Binding seen in cells or lysates may run through a third protein. Some binding calls cover weakened binding; strength is not graded here.

Sequences of proteins named here, by UniProt entry; tags and fusion partners are left off. Residues count along the entry.
UniProt P22460, residues 518-613: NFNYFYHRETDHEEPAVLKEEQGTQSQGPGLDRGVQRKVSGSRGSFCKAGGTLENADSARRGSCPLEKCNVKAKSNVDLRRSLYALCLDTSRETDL

Target: GST-K_(v1.5) C-terminus fusion protein (residues 518 to 613 of human K_(v1.5)) (human) (UniProt P22460)
Test: pull-down; purified GST fusion (10–20 µg) as bait with 10 µl reticulocyte lysate holding the 35S-labelled prey in 300 µl 25 mM HEPES-Na, 5 mM MgCl2, 5 mM EGTA, 0.05% Tween-20, pH 7.0, 2 h at 25°C; Glutathione Sepharose beads, elution with reduced glutathione, SDS-PAGE and autoradiography; only the target purified

binding: binds
B1: Four and a half LIM protein 1C (FHL1C) (protein, UniProt Q13642-3 1-194)
chain: MAEKFDCHYCRDPLQGKKYVQKDGHHCCLKCFDKFCANTCVECRKPIGADSKEVHYKNRFWHDTCFRCAKCLHPLANETFVAKDNKILCNKCTTREDSPKCKGCFKAIVAGDQNVEYKGTVWHKDCFTCSNCKQVIGTGSFFPKGEDFYCVTCHETKFAKHCVKCNKGLVKAPVWWPMKDNPGTTTASTAKNAP
modifications: 35S-methionine (radiolabelled)
